# Experimental data from the supplement of paper PMC3334620.
# Over roughly 33,000 sequences, “E-score (-0.5 to 0.5)” has its median near -0.015; the highest 2% begin near 0.3. This is one part of the list.
# Biological target: T1, Abf1 (UniProt P14164)
# T1 sequence: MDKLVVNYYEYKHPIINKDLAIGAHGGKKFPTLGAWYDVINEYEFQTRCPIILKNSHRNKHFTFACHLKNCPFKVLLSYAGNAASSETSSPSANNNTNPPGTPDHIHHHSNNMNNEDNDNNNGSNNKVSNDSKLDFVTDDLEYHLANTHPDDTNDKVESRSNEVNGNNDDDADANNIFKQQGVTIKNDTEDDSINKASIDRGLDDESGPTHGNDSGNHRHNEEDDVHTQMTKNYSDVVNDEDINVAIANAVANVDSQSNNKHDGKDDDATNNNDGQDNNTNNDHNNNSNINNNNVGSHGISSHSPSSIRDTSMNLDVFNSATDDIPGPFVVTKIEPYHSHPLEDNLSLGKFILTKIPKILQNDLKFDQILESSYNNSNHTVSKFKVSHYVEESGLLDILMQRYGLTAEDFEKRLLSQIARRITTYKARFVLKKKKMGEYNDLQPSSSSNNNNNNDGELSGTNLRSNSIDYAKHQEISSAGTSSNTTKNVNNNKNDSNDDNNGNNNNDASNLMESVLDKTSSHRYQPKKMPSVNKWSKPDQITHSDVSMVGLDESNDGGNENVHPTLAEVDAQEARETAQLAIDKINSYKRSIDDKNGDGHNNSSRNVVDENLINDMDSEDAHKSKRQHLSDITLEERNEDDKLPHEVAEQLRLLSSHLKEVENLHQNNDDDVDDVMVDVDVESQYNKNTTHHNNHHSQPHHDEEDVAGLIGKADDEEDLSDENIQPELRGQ
# Assay: PBM E-score (8-mer binding enrichment) (E-score (-0.5 to 0.5)); higher = stronger / more preferred TF binding
# Details: protein concentration: 200 nM; construct: GST-full length
# Method: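 Universal 'all 10-mer' protein binding microarrays (Agilent AMADID 015681) probed with GST-tagged S. cerevisiae TFs (full-length or DBD) made by in vitro transcription/translation (PURExpress), about 100-200 nM. Bound TF was detected with fluorescent anti-GST. Each ungapped 8-mer (which stands for itself and its reverse complement) is scored by the PBM enrichment score (E-score), a modified Wilcoxon-Mann-Whitney statistic from -0.5 to +0.5, computed with the Universal PBM Analysis Suite. Scale: above 0.35 generally sequence-specific binding.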
row,Sequence,PBM E-score
1,ACAGCTTC,-0.197
2,GTCTTACA,-0.0527
3,GTAGGGAA,0.0879
4,GTGGCTGA,0.00582
5,ATTCCGGC,-0.208
6,CAAACACC,-0.0983
7,CAGCGTCC,-0.29
8,GATGAGTA,0.0707
9,CAATCTGC,-0.0922
10,GACTCAAA,-0.05
11,CTCTAAGA,0.0828
12,CTATTATC,0.277
13,CCACTTAG,-0.0828
14,CCTGCCCC,-0.308
15,AACGCTCA,-0.0246
16,GACGACCA,0.286
17,ACAACATA,0.0911
18,AATCAGCA,0.221
19,CTGATGGC,-0.118
20,GTATTCTA,0.088
21,ATTGTTAG,0.0638
22,AGGAAACA,0.0584

row,Sequence,PBM E-score
1,AATTCGCG,0.114
2,AGGATAAA,0.128
3,ACCAACGC,-0.145
4,CCTTCTGC,-0.195
5,TAGCTCGA,-0.17
6,AATTTGTA,0.086
7,ACCTGCGA,0.0631
8,TCAAAAGA,0.0565
9,GCAGAACC,-0.238
10,CAAATTCG,0.137
11,ATAGTTCC,-0.0329
12,AACTAACT,-0.0565
13,GCCGGTAA,-0.103
14,CATCTCGA,0.00497
15,CCGGCCTC,-0.162
16,AGACTTGG,-0.263
17,GTAGTGCA,-0.0469
18,ACACGACC,-0.00503
19,CCATCACG,-0.0432
20,CAAATAGG,-0.0794
21,GGCATCAA,-0.225
22,GAACTGTA,0.0102

row,Sequence,PBM E-score
1,CTGTCAAC,0.224
2,CTGCTCAC,0.0856
3,CATCCTCA,0.0722
4,AATTTAAG,-0.0175
5,AATTCCAG,-0.00589
6,CAGTGATA,0.377
7,GTACGGGA,0.17
8,AATCTCAC,0.0907
9,ACATGTCC,0.271
10,AAAAGCTT,-0.0184
11,CAGTACAA,0.0284
12,GTATACAA,0.184
13,GCGCATCC,-0.11
14,AAGAGAGA,-0.161
15,GCCGGTAC,-0.0106
16,ATTTCAAG,0.181
17,CCATTGGG,-0.0928
18,GGCAGTAC,0.0339
19,GTGTCAAA,0.0408
20,AAAGGCCG,-0.144
21,ACGAGACA,0.185
22,AATGGGTG,-0.0386

row,Sequence,PBM E-score
1,ATCTATGG,-0.137
2,ATACTTGG,0.0857
3,GGGGAGTA,-0.118
4,CATTCCCG,0.187
5,AAAACCAA,0.00572
6,ATTCACTC,-0.142
7,ACTGTTCT,-0.0573
8,ATCAGTCG,0.198
9,CATTAACC,0.0935
10,ATGAATTA,0.0997
11,CCTACGTC,0.0219
12,CGTTGCGC,0.00442
13,GACAAAAA,0.15
14,GAATACAA,0.035
15,AGCGAAAT,-0.0778
16,GCGAAAGA,-0.024
17,ACGCCCTC,0.00844
18,ATCGGGGG,-0.33
19,CGAAGGTC,-0.196
20,ATTGGCTC,-0.0984
